Reference: article PMC12886786
These are yes or no findings as the source states them, for the method shown. Binding seen in cells or lysates may run through a third protein. Some results given as binding are weak or reduced against the parent protein; the word gives no strength. For some assays here: Sequences can lack the tags named with a protein. Values belong to the molecule of their own block, whether it stands above or below them.

The chains behind the UniProt entries cited, without tags or fusion partners. Where a name states a change or a piece, a line headed by the entry shows the natural chain unless it says otherwise. A line that says so, or that is headed by a name, gives the form on record, which may keep a tag or linker.
mCherry-PIPKIγ-i5 (O60331, form named): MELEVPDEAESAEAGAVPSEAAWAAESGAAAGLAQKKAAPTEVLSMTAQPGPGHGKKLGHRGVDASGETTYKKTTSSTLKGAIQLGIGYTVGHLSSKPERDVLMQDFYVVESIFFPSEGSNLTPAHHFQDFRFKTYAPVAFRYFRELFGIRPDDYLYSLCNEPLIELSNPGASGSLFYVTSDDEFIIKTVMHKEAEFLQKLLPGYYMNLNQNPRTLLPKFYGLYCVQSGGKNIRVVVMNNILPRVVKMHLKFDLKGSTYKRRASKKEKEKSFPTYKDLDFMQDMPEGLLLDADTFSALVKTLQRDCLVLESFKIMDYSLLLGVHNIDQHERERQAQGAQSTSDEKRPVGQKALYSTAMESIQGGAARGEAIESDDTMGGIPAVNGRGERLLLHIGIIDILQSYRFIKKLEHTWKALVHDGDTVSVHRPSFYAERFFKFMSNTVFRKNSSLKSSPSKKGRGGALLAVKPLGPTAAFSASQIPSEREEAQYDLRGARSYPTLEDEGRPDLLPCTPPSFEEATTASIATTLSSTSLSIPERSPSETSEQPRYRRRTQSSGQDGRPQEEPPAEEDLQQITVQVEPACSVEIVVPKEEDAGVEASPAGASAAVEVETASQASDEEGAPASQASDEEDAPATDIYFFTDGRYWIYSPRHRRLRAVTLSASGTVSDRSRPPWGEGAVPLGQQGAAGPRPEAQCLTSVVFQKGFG
UniProt O14578: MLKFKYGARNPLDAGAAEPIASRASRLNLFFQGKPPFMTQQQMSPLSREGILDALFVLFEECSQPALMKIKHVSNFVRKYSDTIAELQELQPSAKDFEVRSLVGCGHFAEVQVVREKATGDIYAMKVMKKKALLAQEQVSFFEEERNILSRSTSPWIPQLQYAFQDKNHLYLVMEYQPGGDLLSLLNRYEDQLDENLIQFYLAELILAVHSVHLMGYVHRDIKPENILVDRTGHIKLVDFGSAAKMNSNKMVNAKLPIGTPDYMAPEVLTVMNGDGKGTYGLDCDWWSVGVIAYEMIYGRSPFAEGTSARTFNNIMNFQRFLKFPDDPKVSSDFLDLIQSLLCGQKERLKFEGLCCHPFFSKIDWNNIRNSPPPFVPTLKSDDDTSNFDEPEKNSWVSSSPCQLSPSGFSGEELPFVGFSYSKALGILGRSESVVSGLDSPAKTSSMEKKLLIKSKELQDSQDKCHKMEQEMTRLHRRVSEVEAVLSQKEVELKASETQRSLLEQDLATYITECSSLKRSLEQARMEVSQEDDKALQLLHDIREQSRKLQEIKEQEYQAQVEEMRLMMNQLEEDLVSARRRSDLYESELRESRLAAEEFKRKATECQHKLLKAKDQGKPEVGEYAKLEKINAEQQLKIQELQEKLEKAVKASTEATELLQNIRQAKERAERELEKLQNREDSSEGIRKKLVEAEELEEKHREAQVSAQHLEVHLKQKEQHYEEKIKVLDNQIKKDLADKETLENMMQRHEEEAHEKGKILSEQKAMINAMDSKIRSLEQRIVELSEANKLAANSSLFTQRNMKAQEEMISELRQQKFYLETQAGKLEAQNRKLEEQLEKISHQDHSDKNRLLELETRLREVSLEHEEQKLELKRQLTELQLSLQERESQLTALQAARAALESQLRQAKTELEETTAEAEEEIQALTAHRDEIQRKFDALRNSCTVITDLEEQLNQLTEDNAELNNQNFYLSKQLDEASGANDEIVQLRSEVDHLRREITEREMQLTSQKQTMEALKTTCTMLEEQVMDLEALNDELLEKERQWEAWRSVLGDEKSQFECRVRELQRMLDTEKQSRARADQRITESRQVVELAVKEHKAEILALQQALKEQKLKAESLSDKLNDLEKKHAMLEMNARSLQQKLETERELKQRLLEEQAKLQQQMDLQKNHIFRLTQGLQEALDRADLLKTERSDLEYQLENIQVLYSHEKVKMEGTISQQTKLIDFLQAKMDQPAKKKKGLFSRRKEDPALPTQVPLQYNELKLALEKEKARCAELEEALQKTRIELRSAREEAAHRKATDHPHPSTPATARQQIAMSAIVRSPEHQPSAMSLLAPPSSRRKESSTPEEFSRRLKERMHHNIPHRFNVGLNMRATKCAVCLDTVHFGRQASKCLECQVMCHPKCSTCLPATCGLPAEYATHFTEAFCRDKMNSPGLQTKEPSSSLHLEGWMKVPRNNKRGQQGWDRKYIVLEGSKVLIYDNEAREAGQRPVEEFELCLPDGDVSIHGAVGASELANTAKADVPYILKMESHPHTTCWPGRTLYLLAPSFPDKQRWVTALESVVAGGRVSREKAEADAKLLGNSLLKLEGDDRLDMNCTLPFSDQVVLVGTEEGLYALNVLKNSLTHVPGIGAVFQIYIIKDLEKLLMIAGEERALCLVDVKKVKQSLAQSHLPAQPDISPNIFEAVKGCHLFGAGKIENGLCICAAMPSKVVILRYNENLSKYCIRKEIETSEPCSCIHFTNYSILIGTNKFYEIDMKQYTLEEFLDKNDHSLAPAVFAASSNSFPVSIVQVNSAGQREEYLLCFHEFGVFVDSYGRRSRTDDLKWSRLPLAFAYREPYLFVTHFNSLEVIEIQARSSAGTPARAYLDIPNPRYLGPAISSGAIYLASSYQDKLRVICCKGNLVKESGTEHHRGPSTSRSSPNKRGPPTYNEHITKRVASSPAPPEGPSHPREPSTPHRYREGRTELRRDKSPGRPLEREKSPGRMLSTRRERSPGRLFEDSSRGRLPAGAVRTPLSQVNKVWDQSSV

Assays:
[1] = molecular target: T1, endogenous SEPT2 (HeLa) (human (endogenous in HeLa)) (UniProt Q15019); assay: co-IP; endogenous SEPT2 immunoprecipitated (rabbit anti-SEPT2 on protein A/G magnetic beads, 3-4 h at 4 °C) from lysates of HeLa cells in cytokinesis or arrested in S-phase by thymidine; Western blot
T1 sequence: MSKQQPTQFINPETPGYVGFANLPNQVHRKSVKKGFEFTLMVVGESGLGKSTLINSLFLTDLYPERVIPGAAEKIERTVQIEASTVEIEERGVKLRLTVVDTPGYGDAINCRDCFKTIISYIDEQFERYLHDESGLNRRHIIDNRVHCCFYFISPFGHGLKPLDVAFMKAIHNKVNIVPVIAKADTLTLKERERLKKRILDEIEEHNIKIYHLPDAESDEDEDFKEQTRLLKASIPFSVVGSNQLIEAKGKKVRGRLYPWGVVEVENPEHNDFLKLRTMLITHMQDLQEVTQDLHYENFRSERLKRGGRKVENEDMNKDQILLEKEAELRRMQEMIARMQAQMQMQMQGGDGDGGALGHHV

[2] = molecular target: mCherry-PIPKIγ-i5 (human) (UniProt O60331); assay: co-IP; HEK-293T co-transfected with mCherry-PIPKIγ and myc-tagged SEPT7 or SEPT9; RFP-Trap magnetic particles, 2.5 h at 4 °C; lysis buffer 20 mM HEPES, 100 mM KCl, 2 mM MgCl2, 1% Triton X-100, pH 7.4; immunoblot

- binding [2]: binds
B1: myc-tagged SEPT7 (protein, UniProt Q16181 1-437)
chain: MSVSARSAAAEERSVNSSTMVAQQKNLEGYVGFANLPNQVYRKSVKRGFEFTLMVVGESGLGKSTLINSLFLTDLYSPEYPGPSHRIKKTVQVEQSKVLIKEGGVQLLLTIVDTPGFGDAVDNSNCWQPVIDYIDSKFEDYLNAESRVNRRQMPDNRVQCCLYFIAPSGHGLKPLDIEFMKRLHEKVNIIPLIAKADTLTPEECQQFKKQIMKEIQEHKIKIYEFPETDDEEENKLVKKIKDRLPLAVVGSNTIIEVNGKRVRGRQYPWGVAEVENGEHCDFTILRNMLIRTHMQDLKDVTNNVHYENYRSRKLAAVTYNGVDNNKNKGQLTKSPLAQMEEERREHVAKMKKMEMEMEQVFEMKVKEKVQKLKDSEAELQRRHEQMKKNLEAQHKELEEKRRQFEDEKANWEAQQRILEQQNSSRTLEKNKKKGKIF

- binding [2]: binds
B2: myc-tagged SEPT9 (protein, UniProt Q9UHD8 1-586)
chain: MKKSYSGGTRTSSGRLRRLGDSSGPALKRSFEVEEVETPNSTPPRRVQTPLLRATVASSTQKFQDLGVKNSEPSARHVDSLSQRSPKASLRRVELSGPKAAEPVSRRTELSIDISSKQVENAGAIGPSRFGLKRAEVLGHKTPEPAPRRTEITIVKPQESAHRRMEPPASKVPEVPTAPATDAAPKRVEIQMPKPAEAPTAPSPAQTLENSEPAPVSQLQSRLEPKPQPPVAEATPRSQEATEAAPSCVGDMADTPRDAGLKQAPASRNEKAPVDFGYVGIDSILEQMRRKAMKQGFEFNIMVVGQSGLGKSTLINTLFKSKISRKSVQPTSEERIPKTIEIKSITHDIEEKGVRMKLTVIDTPGFGDHINNENCWQPIMKFINDQYEKYLQEEVNINRKKRIPDTRVHCCLYFIPATGHSLRPLDIEFMKRLSKVVNIVPVIAKADTLTLEERVHFKQRITADLLSNGIDVYPQKEFDEDSEDRLVNEKFREMIPFAVVGSDHEYQVNGKRILGRKTKWGTIEVENTTHCEFAYLRDLLIRTHMQNIKDITSSIHFEAYRVKRLNEGSSAMANGMEEKEPEAPEM

The next lines start with the molecule.

Molecule: citron kinase (from UniProt O14578 1-2027)
- binding [1]: binds

B3: anillin (protein, UniProt Q9NQW6 1-1124)
chain: MDPFTEKLLERTRARRENLQRKMAERPTAAPRSMTHAKRARQPLSEASNQQPLSGGEEKSCTKPSPSKKRCSDNTEVEVSNLENKQPVESTSAKSCSPSPVSPQVQPQAADTISDSVAVPASLLGMRRGLNSRLEATAASSVKTRMQKLAEQRRRWDNDDMTDDIPESSLFSPMPSEEKAASPPRPLLSNASATPVGRRGRLANLAATICSWEDDVNHSFAKQNSVQEQPGTACLSKFSSASGASARINSSSVKQEATFCSQRDGDASLNKALSSSADDASLVNASISSSVKATSPVKSTTSITDAKSCEGQNPELLPKTPISPLKTGVSKPIVKSTLSQTVPSKGELSREICLQSQSKDKSTTPGGTGIKPFLERFGERCQEHSKESPARSTPHRTPIITPNTKAIQERLFKQDTSSSTTHLAQQLKQERQKELACLRGRFDKGNIWSAEKGGNSKSKQLETKQETHCQSTPLKKHQGVSKTQSLPVTEKVTENQIPAKNSSTEPKGFTECEMTKSSPLKITLFLEEDKSLKVTSDPKVEQKIEVIREIEMSVDDDDINSSKVINDLFSDVLEEGELDMEKSQEEMDQALAESSEEQEDALNISSMSLLAPLAQTVGVVSPESLVSTPRLELKDTSRSDESPKPGKFQRTRVPRAESGDSLGSEDRDLLYSIDAYRSQRFKETERPSIKQVIVRKEDVTSKLDEKNNAFPCQVNIKQKMQELNNEINMQQTVIYQASQALNCCVDEEHGKGSLEEAEAERLLLIATGKRTLLIDELNKLKNEGPQRKNKASPQSEFMPSKGSVTLSEIRLPLKADFVCSTVQKPDAANYYYLIILKAGAENMVATPLASTSNSLNGDALTFTTTFTLQDVSNDFEINIEVYSLVQKKDPSGLDKKKKTSKSKAITPKRLLTSITTKSNIHSSVMASPGGLSAVRTSNFALVGSYTLSLSSVGNTKFVLDKVPFLSSLEGHIYLKIKCQVNSSVEERGFLTIFEDVSGFGAWHRRWCVLSGNCISYWTYPDDEKRKNPIGRINLANCTSRQIEPANREFCARRNTFELITVRPQREDDRETLVSQCRDTLCVTKNWLSADTKEERDLWMQKLNQVLVDIRLWQPDACYKPIGKP
- binding [1]: binds

B4: mitotic kinesin-like protein 1 (MKLP1) (protein, UniProt Q02241 1-960)
chain: MKSARAKTPRKPTVKKGSQTNLKDPVGVYCRVRPLGFPDQECCIEVINNTTVQLHTPEGYRLNRNGDYKETQYSFKQVFGTHTTQKELFDVVANPLVNDLIHGKNGLLFTYGVTGSGKTHTMTGSPGEGGLLPRCLDMIFNSIGSFQAKRYVFKSNDRNSMDIQCEVDALLERQKREAMPNPKTSSSKRQVDPEFADMITVQEFCKAEEVDEDSVYGVFVSYIEIYNNYIYDLLEEVPFDPIKPKPPQSKLLREDKNHNMYVAGCTEVEVKSTEEAFEVFWRGQKKRRIANTHLNRESSRSHSVFNIKLVQAPLDADGDNVLQEKEQITISQLSLVDLAGSERTNRTRAEGNRLREAGNINQSLMTLRTCMDVLRENQMYGTNKMVPYRDSKLTHLFKNYFDGEGKVRMIVCVNPKAEDYEENLQVMRFAEVTQEVEVARPVDKAICGLTPGRRYRNQPRGPVGNEPLVTDVVLQSFPPLPSCEILDINDEQTLPRLIEALEKRHNLRQMMIDEFNKQSNAFKALLQEFDNAVLSKENHMQGKLNEKEKMISGQKLEIERLEKKNKTLEYKIEILEKTTTIYEEDKRNLQQELETQNQKLQRQFSDKRRLEARLQGMVTETTMKWEKECERRVAAKQLEMQNKLWVKDEKLKQLKAIVTEPKTEKPERPSRERDREKVTQRSVSPSPVPLSSNYIAQISNGQQLMSQPQLHRRSNSCSSISVASCISEWEQKIPTYNTPLKVTSIARRRQQEPGQSKTCIVSDRRRGMYWTEGREVVPTFRNEIEIEEDHCGRLLFQPDQNAPPIRLRHRRSRSAGDRWVDHKPASNMQTETVMQPHVPHAITVSVANEKALAKCEKYMLTHQELASDGEIETKLIKGDIYKTRGGGQSVQFTDIETLKQESPNGSRKRRSSTVAPAQPDGAESEWTDVETRCSVAVEMRAGSQLGPGYQHHAQPKRKKP
- binding [1]: binds
